In patent US7524811B2, “Anti-angiogenic peptides from the N-terminus of endostatin” (Children's Medical Center Corporation, priority 2003, dated 2009):

B1: wild type: wild type human endostatin of Sim et al. 1999 (protein, UniProt P39060 1572-1754, looked up)
Endostatin: HSHRDFQPVLHLVALNSPLSGGMRGIRGADFQCFQQARAVGLAGTFRAFLSSRLQDLYSIVRRADRAAVPIVNLKDELLFPSWEALFSGSEGPLKPGARIFSFDGKDVLRHPTWPQKSVWHGSDPNGRRLTESYCETWRTEAPSATGQASSLLGGRLLGQSAASCHHAYIVLCIENSFMTASK
modifications: Endostatin
B2: endostatin: endostatin employed for crystallization studies (Ding et al. 1998) (protein, UniProt P39060 1572-1754, looked up)
Endostatin: HSHRDFQPVLHLVALNSPLSGGMRGIRGADFQCFQQARAVGLAGTFRAFLSSRLQDLYSIVRRADRAAVPIVNLKDELLFPSWEALFSGSEGPLKPGARIFSFDGKDVLRHPTWPQKSVWHGSDPNGRRLTESYCETWRTEAPSATGQASSLLGGRLLGQSAASCHHAYIVLCIENSFMTASK
modifications: Endostatin

Assays:
[1] = Zn binding capacity by flame atomic absorption after dialysis; conditions: for zinc ratio per molecule of peptide: from atomic absorption readings, peptide molecular weight taken as 3000; for final zinc concentration (atomic absorption reading): peptide 0.5 mg/ml in 20 mM Tris pH 8.0, excess Zn chloride 1 mM, dialyzed 72 hours
[2] = Sim et al. 1999; Ding et al. 1998; cited from earlier work

Molecule	zinc ratio per molecule of peptide [1]	final zinc concentration (atomic absorption reading) [1] [µg/mL]	atoms of zinc bound per molecule of endostatin [2]
ATAQDFQPVLHLVALNTPLSGGMRGIR [mP1-H1/3A]	0.1	1.05	–
HTHQDFQPVLHLVALNTPLSGGMRGIR [mP1]	0.9	9.63	–
B1	–	–	10 atoms of zinc per molecule
B2	–	–	1 atoms of zinc per molecule
